Data reported in the supplement of paper PMC10849652.
The other results are listed elsewhere or left out.

Protein sequences, listed by entry. Tags and fused reporters are not part of them. Lines headed by an entry give the natural chain unless they say otherwise; changes in a name come on top.
UniProt P69849: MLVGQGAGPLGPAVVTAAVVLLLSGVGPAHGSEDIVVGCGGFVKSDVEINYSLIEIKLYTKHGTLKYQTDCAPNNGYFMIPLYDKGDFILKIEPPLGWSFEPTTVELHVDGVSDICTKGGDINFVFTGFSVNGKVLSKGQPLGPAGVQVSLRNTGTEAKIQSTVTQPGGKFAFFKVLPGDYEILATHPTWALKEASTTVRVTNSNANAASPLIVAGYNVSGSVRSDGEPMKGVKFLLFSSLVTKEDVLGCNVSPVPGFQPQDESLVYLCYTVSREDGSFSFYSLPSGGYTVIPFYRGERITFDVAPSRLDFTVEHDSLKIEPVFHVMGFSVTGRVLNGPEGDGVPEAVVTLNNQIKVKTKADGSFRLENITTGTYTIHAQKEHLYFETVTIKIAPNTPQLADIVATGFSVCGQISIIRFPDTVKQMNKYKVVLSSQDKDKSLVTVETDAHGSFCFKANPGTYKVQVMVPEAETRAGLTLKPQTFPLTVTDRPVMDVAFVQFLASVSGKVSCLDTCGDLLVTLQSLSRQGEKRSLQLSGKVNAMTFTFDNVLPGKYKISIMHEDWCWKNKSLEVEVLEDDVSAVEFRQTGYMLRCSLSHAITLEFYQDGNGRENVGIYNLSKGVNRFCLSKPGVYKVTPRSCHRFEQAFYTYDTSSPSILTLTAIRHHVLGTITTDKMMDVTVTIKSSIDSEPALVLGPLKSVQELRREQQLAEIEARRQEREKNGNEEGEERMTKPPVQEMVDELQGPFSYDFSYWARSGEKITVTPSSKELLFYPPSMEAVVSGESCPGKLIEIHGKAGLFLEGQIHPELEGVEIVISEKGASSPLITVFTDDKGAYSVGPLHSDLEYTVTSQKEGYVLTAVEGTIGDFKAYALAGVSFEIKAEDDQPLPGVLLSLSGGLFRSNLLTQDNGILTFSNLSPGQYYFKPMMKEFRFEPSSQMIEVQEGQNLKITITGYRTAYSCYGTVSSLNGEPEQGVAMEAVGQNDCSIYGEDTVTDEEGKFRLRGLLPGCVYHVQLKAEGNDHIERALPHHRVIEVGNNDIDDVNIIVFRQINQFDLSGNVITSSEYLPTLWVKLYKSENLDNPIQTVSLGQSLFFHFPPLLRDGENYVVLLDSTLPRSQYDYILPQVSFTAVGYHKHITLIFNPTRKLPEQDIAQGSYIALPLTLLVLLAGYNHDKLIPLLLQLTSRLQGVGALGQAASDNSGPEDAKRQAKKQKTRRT
UniProt Q92686, whole entry, looked up: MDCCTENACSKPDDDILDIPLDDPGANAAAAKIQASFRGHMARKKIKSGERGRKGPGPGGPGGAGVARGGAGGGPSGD
UniProt O00746: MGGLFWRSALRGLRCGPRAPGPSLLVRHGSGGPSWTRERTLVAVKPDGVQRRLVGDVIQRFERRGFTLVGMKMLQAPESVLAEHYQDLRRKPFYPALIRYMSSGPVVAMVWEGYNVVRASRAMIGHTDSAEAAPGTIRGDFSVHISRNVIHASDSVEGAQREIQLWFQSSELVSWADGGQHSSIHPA
UniProt P13056: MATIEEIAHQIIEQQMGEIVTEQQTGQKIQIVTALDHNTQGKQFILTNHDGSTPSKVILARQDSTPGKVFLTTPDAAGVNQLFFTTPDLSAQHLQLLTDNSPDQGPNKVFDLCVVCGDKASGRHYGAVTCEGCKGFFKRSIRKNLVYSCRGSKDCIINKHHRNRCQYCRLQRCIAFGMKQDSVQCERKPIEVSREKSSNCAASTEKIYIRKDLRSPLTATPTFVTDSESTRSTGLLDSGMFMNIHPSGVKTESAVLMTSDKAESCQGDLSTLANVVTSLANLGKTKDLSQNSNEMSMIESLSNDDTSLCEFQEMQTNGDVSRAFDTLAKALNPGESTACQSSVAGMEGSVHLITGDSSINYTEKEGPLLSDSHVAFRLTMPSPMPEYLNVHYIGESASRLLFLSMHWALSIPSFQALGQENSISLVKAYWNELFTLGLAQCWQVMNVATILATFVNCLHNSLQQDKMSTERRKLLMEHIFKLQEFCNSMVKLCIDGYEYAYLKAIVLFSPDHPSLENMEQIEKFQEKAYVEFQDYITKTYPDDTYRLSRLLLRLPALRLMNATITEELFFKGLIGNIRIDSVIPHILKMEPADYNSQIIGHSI
UniProt Q76FK4: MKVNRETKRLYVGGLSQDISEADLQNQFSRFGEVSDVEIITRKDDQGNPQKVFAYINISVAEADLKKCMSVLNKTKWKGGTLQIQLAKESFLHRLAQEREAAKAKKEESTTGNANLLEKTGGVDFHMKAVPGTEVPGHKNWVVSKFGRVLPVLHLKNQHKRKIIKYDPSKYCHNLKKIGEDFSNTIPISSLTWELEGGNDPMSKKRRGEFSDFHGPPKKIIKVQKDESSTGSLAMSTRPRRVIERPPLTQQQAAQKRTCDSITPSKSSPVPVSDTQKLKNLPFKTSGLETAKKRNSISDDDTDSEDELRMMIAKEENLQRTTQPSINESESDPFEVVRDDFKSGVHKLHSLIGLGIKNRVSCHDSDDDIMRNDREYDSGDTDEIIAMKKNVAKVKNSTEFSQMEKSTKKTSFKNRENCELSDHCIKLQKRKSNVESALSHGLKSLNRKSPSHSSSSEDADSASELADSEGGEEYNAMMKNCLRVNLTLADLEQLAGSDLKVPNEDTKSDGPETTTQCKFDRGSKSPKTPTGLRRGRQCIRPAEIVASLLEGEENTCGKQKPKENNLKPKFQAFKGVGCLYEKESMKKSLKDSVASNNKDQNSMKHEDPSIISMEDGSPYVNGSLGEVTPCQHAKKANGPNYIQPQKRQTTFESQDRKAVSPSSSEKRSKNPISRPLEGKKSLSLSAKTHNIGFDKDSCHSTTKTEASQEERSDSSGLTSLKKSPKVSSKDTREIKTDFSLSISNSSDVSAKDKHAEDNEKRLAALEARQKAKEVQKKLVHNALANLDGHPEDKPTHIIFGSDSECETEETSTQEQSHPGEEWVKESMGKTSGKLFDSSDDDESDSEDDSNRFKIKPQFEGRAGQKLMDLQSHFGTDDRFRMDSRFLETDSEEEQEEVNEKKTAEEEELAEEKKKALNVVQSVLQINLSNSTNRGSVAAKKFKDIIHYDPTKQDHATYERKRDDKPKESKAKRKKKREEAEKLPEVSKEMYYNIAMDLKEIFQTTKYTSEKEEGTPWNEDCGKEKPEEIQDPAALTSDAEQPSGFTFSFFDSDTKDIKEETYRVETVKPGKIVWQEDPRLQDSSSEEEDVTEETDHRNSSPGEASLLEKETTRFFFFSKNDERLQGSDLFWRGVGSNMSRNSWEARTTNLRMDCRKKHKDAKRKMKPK
UniProt Q12980: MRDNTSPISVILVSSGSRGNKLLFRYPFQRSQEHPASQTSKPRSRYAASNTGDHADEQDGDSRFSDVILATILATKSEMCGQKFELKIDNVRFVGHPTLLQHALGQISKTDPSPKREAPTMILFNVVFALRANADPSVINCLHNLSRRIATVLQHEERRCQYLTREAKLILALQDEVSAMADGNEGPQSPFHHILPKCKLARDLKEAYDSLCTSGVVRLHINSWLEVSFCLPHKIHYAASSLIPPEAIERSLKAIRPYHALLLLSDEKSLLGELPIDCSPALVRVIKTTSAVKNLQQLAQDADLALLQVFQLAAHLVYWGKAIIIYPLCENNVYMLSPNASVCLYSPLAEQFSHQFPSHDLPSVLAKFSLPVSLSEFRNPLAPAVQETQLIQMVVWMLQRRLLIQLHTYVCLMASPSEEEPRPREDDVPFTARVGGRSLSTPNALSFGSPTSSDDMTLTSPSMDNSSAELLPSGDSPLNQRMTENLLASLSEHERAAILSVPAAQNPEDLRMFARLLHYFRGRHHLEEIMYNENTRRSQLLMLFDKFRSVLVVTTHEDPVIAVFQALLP
UniProt Q9GZP1: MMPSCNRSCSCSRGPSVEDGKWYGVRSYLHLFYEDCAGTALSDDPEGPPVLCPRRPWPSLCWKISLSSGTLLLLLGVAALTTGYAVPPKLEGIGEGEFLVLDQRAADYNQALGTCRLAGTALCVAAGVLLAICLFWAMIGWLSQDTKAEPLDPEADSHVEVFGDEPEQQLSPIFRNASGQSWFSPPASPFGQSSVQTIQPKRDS
UniProt Q96MY1: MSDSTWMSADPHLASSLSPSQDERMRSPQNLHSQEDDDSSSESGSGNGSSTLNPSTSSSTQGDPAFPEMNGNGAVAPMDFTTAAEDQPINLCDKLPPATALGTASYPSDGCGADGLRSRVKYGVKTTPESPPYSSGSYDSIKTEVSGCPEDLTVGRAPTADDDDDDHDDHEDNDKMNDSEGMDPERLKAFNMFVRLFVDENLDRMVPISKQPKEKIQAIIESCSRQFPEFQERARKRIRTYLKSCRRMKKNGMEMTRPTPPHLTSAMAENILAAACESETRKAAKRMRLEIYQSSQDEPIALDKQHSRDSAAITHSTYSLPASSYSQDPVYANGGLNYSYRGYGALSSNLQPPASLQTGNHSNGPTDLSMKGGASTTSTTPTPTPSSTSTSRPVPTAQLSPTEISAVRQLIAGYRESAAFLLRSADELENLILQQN
UniProt Q92859: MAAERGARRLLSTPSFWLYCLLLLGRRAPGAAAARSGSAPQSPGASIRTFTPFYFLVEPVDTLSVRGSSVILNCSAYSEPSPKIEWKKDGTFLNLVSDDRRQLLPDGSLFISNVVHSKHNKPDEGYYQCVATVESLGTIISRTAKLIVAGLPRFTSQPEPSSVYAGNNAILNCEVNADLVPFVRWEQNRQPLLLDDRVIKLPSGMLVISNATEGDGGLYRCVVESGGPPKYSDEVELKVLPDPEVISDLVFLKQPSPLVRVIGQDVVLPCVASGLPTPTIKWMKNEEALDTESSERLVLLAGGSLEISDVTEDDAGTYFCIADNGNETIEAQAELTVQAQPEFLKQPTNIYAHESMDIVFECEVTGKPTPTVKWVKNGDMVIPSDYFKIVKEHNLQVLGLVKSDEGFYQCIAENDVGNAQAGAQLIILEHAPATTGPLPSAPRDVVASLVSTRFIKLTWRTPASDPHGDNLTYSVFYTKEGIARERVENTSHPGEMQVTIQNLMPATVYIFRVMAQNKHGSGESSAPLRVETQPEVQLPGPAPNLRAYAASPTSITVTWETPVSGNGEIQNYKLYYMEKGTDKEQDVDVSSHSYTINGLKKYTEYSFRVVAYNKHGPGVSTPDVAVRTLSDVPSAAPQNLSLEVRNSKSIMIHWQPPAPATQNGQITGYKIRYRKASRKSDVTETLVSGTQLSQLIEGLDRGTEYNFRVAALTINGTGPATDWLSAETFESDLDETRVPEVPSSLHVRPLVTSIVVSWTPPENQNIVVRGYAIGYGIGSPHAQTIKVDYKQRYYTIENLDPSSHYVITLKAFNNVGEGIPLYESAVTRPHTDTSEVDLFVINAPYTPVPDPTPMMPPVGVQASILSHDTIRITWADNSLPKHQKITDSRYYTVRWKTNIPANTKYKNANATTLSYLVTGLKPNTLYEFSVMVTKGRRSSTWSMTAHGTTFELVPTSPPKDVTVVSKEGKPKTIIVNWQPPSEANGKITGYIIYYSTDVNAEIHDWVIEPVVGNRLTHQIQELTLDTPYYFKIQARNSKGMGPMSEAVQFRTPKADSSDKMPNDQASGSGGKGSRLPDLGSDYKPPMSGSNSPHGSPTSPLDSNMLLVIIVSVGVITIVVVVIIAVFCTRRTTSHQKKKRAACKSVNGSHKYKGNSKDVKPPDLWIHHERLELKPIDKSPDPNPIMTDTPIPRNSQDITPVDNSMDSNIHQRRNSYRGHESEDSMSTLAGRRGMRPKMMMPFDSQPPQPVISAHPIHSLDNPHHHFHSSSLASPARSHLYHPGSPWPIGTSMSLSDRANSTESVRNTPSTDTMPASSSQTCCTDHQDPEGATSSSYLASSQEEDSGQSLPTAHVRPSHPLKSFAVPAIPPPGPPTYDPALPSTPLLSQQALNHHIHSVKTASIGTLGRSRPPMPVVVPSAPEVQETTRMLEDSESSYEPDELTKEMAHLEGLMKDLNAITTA
UniProt Q9NQ35: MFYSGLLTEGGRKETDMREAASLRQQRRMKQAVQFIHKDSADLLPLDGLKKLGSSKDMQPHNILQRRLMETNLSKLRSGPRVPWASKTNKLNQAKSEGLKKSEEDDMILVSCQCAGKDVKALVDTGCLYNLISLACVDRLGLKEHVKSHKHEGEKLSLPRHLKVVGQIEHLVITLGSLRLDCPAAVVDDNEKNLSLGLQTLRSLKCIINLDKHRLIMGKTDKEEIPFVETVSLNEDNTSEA
UniProt Q9UQ49: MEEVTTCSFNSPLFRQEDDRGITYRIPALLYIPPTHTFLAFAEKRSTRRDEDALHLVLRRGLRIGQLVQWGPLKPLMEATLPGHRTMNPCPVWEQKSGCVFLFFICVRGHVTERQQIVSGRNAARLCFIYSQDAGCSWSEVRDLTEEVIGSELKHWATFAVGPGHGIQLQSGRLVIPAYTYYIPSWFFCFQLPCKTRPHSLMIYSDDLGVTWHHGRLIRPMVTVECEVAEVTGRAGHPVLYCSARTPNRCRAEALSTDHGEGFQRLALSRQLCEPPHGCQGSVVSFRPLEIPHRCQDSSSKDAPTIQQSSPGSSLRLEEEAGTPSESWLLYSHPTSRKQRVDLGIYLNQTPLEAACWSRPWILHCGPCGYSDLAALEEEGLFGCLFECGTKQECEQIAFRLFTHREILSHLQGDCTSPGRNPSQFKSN

Tests used:
Assay in all cases: log2 fold change, soluble protein after heating vs DMSO (PISA); higher = thermal stabilisation; K562 cells, 10 uM, 30 min; active = over 0.2 and 3.5 SD of the protein, either way, in both replicates (recomputed)
[1] = compound: CCn1c(C(=O)N(C2CC2)C2CC2)cc2c3c(ncn3C)c(Nc3cc(C)n(C)n3)nc21
Procedure, shortened: (§1)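 Aliquots of K562 cells (2×10^6 cells/mL) treated with 10 μM compound for 30 min were heated for 3 min over 48°C-58°C. After pooling and extraction in PBS with 0.5% NP-40 at 4°C, soluble protein from a 21,000xg, 90 min spin was quantified by TMTpro 16plex LC-MS/MS with channel sums equalised. Thermal stability is expressed against control samples, from duplicates, as a log2 fold change.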

[2] = compound: CN(CCOC1=CC=C(C=C1)C[C@H]2C(=O)NC(=O)S2)C3=CC=CC=N3 (racemic) [rosiglitazone]
Procedure, shortened: as §1

[3] = compound: CN1CCc2c(c3ccccc3n2Cc2ccc(C(=O)NO)cc2)C1 [Tubastatin A]
Procedure, shortened: as §1

[4] = compound: CNC(=O)C1=CC=CC=C1NC2=NC(=NC=C2Cl)NC3=C(C=C(C=C3)N4CCOCC4)OC
Procedure, shortened: as §1

[5] = compound: CC[C@H](C)[C@@H](C(=O)N[C@@H]([C@@H](C)O)C(=O)N[C@@H](CC(C)C)C(=O)[C@]1(CO1)C)NC(=O)[C@H]([C@@H](C)CC)N(C)C(=O)C [epoxomicin]
Procedure, shortened: as §1

[6] = compound: CN1CCN(c2nc(C3=C(c4c[nH]c5ccccc45)C(=O)NC3=O)c3ccccc3n2)CC1 [sotrastaurin]
Procedure, shortened: as §1

[7] = compound: CC[C@@H]1C(=O)N(C)c2cnc(Nc3ccc(C(=O)N[C@H]4CC[C@H](N5CCN(CC6CC6)CC5)CC4)cc3OC)nc2N1C(C)C [volasertib]
Procedure, shortened: as §1

[8] = compound: CC[C@H](C)N1C=C(C2=C(C=C(C=C21)C3=CN=C(C=C3)N4CCNCC4)C(=O)NCC5=C(C=C(NC5=O)C)C)C
Procedure, shortened: as §1

[9] = compound: CCn1cc(-c2ccnc3[nH]c(-c4cccc(CN(C)C)c4)cc23)c(-c2ccc(NC(=O)N(C)C)cc2)n1
Procedure, shortened: as §1

[10] = compound: CN1CCC(CNc2ccc3ncc(-c4cccc(OC(F)(F)F)c4)n3n2)CC1
Procedure, shortened: as §1

[11] = compound: CC[C@@H]1C(=O)N(C)c2cnc(Nc3ccc(C(=O)NC4CCN(C)CC4)cc3OC)nc2N1C1CCCC1
Procedure, shortened: as §1

[12] = compound: CNCc1ccc(-c2[nH]c3cc(F)cc4c3c2CCNC4=O)cc1 [rucaparib]
Procedure, shortened: as §1

[13] = compound: COC(=O)N[C@@H](C)CNc1nccc(-c2cn(C(C)C)nc2-c2cc(Cl)cc(NS(C)(=O)=O)c2F)n1 [encorafenib]
Procedure, shortened: as §1

[14] = compound: CN(C)CC(=O)Nc1ccc2[nH]c(=O)c3ccccc3c2c1
Procedure, shortened: as §1

[15] = compound: CNC(=O)c1ccc(Nc2ncc(C(F)(F)F)c(NCc3nccnc3N(C)S(C)(=O)=O)n2)cc1 [defactinib]
Procedure, shortened: as §1

[16] = compound: COC(=O)[C@H](CCSC)NC(=O)C1=C(C=C(C=C1)NC[C@H](CS)N)C2=CC=CC=C2
Procedure, shortened: as §1

[17] = compound: CN1C2=C(C3=C1C(=O)N(N=C3)CC4=CC(=CC=C4)N)SC(=C2)S(=O)C
Procedure, shortened: as §1

[18] = compound: CN1CCN(CCOc2cc(OC3CCOCC3)c3c(Nc4c(Cl)ccc5c4OCO5)ncnc3c2)CC1 [saracatinib]
Procedure, shortened: as §1

[19] = compound: CN1CC[C@H](c2c(O)cc(O)c3c(=O)cc(-c4ccccc4Cl)oc23)[C@H](O)C1 [alvocidib]
Procedure, shortened: as §1

[20] = compound: CNc1nc(-c2ccc3c(N)n[nH]c3c2)cc(N2C[C@@H](C(=O)NC3CCCCC3)CC[C@H]2C)n1
Procedure, shortened: as §1

Target: NOTCH2 (UniProt Q04721)
- log2 fold change [1]: inactive: -0.015
- log2 fold change [2]: inactive: 0.212
- log2 fold change [3]: inactive: -0.02
- log2 fold change [4]: inactive: 0.136

Target: NOMO3 (UniProt P69849)
- log2 fold change [5]: inactive: -0.031
- log2 fold change [1]: inactive: -0.004
- log2 fold change [2]: inactive: 0.109
- log2 fold change [6]: inactive: 0.025
- log2 fold change [4]: inactive: 0.062

Target: NRGN (UniProt Q92686)
- log2 fold change [7]: inactive: 0.052
- log2 fold change [8]: inactive: -0.088
- log2 fold change [5]: inactive: 0.162
- log2 fold change [9]: inactive: 0.14
- log2 fold change [10]: inactive: -0.547
- log2 fold change [4]: inactive: 0.01

Target: NME4 (UniProt O00746)
- log2 fold change [11]: inactive: 0.024
- log2 fold change [1]: inactive: -0.214
- log2 fold change [9]: inactive: 0.021
- log2 fold change [10]: inactive: 0.089
- log2 fold change [4]: inactive: -0.004
- log2 fold change [12]: inactive: -0.025
- log2 fold change [13]: inactive: 0.032

Target: NKTR (UniProt P30414)
- log2 fold change [7]: inactive: -0.152
- log2 fold change [4]: active: 0.939

Target: NFIC isoform 6 (UniProt P08651)
- log2 fold change [14]: inactive: 0.235
- log2 fold change [15]: inactive: 0.162
- log2 fold change [16]: inactive: -0.186

Target: NOL6 (UniProt Q9H6R4)
- log2 fold change [7]: inactive: -0.019
- log2 fold change [5]: inactive: -0.102
- log2 fold change [9]: inactive: 0.049
- log2 fold change [14]: inactive: -0.278
- log2 fold change [2]: inactive: -0.071
- log2 fold change [17]: inactive: 0.227
- log2 fold change [10]: inactive: 0.165
- log2 fold change [18]: inactive: -0.056
- log2 fold change [6]: inactive: -0.043
- log2 fold change [19]: inactive: 0.158
- log2 fold change [3]: inactive: 0.113
- log2 fold change [15]: inactive: 0.168
- log2 fold change [20]: inactive: 0.116
- log2 fold change [16]: inactive: -0.048

Target: NIPSNAP2 (UniProt C9J7B1)
- log2 fold change [6]: inactive: -0.073

Target: NOTCH1 (UniProt P46531)
- log2 fold change [8]: inactive: 0.023
- log2 fold change [5]: inactive: -0.097

Target: NOC4L (UniProt Q9BVI4)
- log2 fold change [8]: inactive: -0.196
- log2 fold change [9]: inactive: 0.016
- log2 fold change [10]: inactive: 0.281

Target: NRBP2 (UniProt Q9NSY0)
- log2 fold change [1]: inactive: -0.065
- log2 fold change [4]: inactive: -0.012

Target: NR2C1 (UniProt P13056)
- log2 fold change [8]: inactive: -0.009
- log2 fold change [5]: inactive: 0.245
- log2 fold change [14]: inactive: -0.14
- log2 fold change [2]: inactive: -0.15
- log2 fold change [6]: inactive: -0.068
- log2 fold change [15]: inactive: 0.01
- log2 fold change [16]: inactive: -0.082

Target: NOL8 (UniProt Q76FK4)
- log2 fold change [7]: inactive: -0.133
- log2 fold change [9]: inactive: 0.119
- log2 fold change [17]: inactive: 0.108
- log2 fold change [10]: inactive: -0.306
- log2 fold change [18]: inactive: 0.105
- log2 fold change [20]: inactive: -0.271

Target: NOL9 (UniProt Q5SY16)
- log2 fold change [1]: inactive: 0.015
- log2 fold change [4]: inactive: 0.067

Target: NPRL3 (UniProt Q12980)
- log2 fold change [1]: inactive: -0.117
- log2 fold change [17]: inactive: -0.056
- log2 fold change [18]: inactive: 0.138
- log2 fold change [4]: inactive: 0.094
- log2 fold change [20]: inactive: -0.036

Target: NMRK1 (UniProt Q9NWW6)
- log2 fold change [1]: inactive: 0.077
- log2 fold change [17]: inactive: 0.065
- log2 fold change [18]: inactive: -0.017
- log2 fold change [4]: inactive: -0.164
- log2 fold change [20]: inactive: -0.22

Target: NRSN2 (UniProt Q9GZP1)
- log2 fold change [5]: inactive: 0.083
- log2 fold change [1]: inactive: -0.229
- log2 fold change [17]: inactive: -0.34
- log2 fold change [18]: inactive: 0.057
- log2 fold change [6]: inactive: -0.098
- log2 fold change [3]: inactive: -0.063
- log2 fold change [4]: inactive: 0.097
- log2 fold change [20]: inactive: -0.123

Target: NOL12 (UniProt Q9UGY1)
- log2 fold change [7]: inactive: 0.398
- log2 fold change [8]: inactive: 0.025
- log2 fold change [5]: inactive: -0.355
- log2 fold change [1]: inactive: -0.051
- log2 fold change [9]: inactive: 0.277
- log2 fold change [14]: inactive: -0.08
- log2 fold change [2]: inactive: -0.18
- log2 fold change [17]: inactive: 0.317
- log2 fold change [10]: inactive: 0.462
- log2 fold change [18]: inactive: -0.143
- log2 fold change [6]: inactive: -0.012
- log2 fold change [19]: inactive: 0.38
- log2 fold change [3]: inactive: 0.027
- log2 fold change [4]: inactive: 0.029
- log2 fold change [15]: inactive: 0.523
- log2 fold change [20]: inactive: -0.063
- log2 fold change [16]: inactive: 0

Target: NOL4L (UniProt Q96MY1)
- log2 fold change [8]: inactive: 0.101
- log2 fold change [5]: inactive: -0.088
- log2 fold change [1]: inactive: -0.078
- log2 fold change [17]: inactive: 0.081
- log2 fold change [18]: inactive: -0.122
- log2 fold change [6]: inactive: -0.018
- log2 fold change [3]: inactive: -0.065
- log2 fold change [4]: inactive: -0.061
- log2 fold change [20]: inactive: -0.288

Target: NEO1 (UniProt Q92859)
- log2 fold change [11]: inactive: -0.01
- log2 fold change [8]: inactive: -0.086
- log2 fold change [14]: inactive: -0.021
- log2 fold change [3]: inactive: 0.17
- log2 fold change [15]: inactive: -0.071
- log2 fold change [12]: inactive: 0.411
- log2 fold change [13]: inactive: -0.389
- log2 fold change [16]: inactive: -0.005

Target: NOLC1 isoform 3 (UniProt Q14978)
- log2 fold change [4]: inactive: 0.018

Target: NRIP3 (UniProt Q9NQ35)
- log2 fold change [6]: inactive: 0.25

Target: NEU3 isoform 2 (UniProt Q9UQ49)
- log2 fold change [7]: inactive: -0.158
- log2 fold change [6]: inactive: 0.004
- log2 fold change [4]: inactive: 0.091

Target: NEURL4 (UniProt Q96JN8)
- log2 fold change [11]: inactive: 0.069
- log2 fold change [1]: inactive: -0.021
- log2 fold change [14]: inactive: -0.154
- log2 fold change [2]: inactive: -0.03
- log2 fold change [17]: inactive: 0.092
- log2 fold change [18]: inactive: 0.284
- log2 fold change [6]: inactive: 0.435
- log2 fold change [19]: inactive: 0.096
- log2 fold change [4]: inactive: 0.249
- log2 fold change [15]: inactive: -0.142
- log2 fold change [12]: inactive: -0.392
- log2 fold change [20]: inactive: -0.129
- log2 fold change [13]: inactive: -0.035
- log2 fold change [16]: inactive: 0.139
